Measured values from patent US20170056520A1.
Results are given in words; binding and its absence hold for the method and conditions named. Some entries that bind do so weakly or less than the wild type.

Amino acid sequences for entries named in this document (tags omitted). A change or cut given only in a name is not applied to a line headed by its entry.
UniProt Q9NZQ7: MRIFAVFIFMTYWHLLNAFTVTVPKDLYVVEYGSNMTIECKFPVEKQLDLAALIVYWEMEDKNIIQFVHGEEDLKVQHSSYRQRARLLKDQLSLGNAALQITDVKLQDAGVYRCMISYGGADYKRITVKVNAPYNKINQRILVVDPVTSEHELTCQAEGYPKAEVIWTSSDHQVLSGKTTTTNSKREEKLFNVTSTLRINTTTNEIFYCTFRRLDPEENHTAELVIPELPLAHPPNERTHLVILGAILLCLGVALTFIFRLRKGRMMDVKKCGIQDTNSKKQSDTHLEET

Target: recombinant human PD-1-IgG1.Fc fusion protein (human)
Assay: ELISA; plate coated with PD-L1 at 50 µg/ml, PD1-IgG1.Fc added at 50 µg/ml, detected with HRP goat anti-human IgG.Fc

binding: binds
Substance: recombinant human PD-L1 (from UniProt Q9NZQ7 19-238) (ligand)
